Experimental data as given in the supplement of paper PMC10849652.
This is one part of the list.

Protein sequences, listed by entry. Tags and fused reporters are not part of them. Lines headed by an entry give the natural chain unless they say otherwise; changes in a name come on top.
UniProt Q14680: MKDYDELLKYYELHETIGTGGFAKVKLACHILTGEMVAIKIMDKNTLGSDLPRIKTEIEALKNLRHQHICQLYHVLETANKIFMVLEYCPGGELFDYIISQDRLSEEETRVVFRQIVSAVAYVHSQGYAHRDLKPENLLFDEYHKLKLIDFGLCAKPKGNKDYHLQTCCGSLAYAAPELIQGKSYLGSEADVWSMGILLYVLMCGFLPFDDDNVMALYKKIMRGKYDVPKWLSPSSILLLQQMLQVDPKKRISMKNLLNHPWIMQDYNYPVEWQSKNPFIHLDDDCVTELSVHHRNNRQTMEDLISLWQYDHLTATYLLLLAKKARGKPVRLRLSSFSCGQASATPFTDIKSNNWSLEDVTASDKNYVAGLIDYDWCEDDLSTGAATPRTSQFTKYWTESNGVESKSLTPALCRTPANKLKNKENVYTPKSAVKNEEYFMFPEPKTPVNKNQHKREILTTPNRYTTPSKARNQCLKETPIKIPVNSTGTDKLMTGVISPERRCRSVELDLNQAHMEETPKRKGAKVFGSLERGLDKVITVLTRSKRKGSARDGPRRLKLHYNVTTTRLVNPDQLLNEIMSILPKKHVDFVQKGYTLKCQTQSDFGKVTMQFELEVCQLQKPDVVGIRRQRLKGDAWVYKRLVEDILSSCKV
UniProt Q9Y4C4: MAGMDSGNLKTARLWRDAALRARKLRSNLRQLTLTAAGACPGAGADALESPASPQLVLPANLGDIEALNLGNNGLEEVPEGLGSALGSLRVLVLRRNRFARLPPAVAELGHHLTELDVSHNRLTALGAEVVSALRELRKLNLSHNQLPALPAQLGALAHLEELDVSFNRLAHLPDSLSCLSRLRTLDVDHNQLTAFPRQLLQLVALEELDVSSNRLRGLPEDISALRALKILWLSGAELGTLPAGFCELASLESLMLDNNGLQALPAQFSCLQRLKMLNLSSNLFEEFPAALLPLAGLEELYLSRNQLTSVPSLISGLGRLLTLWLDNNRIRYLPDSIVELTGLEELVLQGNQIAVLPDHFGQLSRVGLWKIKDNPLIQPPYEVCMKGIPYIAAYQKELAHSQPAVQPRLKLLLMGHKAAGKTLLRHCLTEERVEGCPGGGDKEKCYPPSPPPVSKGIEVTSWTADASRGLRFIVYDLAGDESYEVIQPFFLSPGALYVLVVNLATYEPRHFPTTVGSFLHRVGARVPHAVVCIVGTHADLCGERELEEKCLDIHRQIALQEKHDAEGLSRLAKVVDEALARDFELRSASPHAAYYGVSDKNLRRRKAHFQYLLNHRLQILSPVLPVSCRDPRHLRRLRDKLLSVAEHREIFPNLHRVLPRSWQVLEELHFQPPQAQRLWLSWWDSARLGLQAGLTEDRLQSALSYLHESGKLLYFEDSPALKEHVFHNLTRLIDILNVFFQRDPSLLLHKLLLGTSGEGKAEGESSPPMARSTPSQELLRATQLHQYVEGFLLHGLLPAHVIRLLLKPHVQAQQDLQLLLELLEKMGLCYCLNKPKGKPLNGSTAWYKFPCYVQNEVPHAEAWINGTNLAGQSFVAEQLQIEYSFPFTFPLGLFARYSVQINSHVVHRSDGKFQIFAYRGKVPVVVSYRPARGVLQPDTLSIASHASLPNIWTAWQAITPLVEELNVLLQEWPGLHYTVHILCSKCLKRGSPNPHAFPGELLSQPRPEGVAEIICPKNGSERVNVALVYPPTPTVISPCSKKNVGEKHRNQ
UniProt P49736, whole entry, looked up: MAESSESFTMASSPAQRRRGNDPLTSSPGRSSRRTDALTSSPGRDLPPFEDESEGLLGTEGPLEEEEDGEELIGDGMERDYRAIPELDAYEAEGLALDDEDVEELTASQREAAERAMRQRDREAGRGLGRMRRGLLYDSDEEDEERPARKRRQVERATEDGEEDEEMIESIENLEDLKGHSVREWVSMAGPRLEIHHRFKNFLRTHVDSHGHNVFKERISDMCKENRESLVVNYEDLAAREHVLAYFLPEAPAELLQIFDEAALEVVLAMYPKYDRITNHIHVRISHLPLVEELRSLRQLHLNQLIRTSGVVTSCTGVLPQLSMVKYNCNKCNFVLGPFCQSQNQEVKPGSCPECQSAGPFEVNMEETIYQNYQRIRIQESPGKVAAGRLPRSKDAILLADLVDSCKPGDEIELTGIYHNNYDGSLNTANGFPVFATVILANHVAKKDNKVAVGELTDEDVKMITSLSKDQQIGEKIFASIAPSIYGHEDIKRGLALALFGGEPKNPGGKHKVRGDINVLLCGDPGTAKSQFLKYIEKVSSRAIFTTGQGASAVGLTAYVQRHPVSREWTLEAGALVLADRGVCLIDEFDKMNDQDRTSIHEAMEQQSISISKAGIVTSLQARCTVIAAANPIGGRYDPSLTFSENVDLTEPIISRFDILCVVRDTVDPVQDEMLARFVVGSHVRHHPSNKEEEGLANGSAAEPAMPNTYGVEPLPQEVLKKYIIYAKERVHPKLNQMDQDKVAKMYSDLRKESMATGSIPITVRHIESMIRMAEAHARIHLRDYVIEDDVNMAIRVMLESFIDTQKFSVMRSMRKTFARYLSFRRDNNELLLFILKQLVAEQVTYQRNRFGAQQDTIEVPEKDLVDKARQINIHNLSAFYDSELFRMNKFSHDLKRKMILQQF
UniProt Q86W50: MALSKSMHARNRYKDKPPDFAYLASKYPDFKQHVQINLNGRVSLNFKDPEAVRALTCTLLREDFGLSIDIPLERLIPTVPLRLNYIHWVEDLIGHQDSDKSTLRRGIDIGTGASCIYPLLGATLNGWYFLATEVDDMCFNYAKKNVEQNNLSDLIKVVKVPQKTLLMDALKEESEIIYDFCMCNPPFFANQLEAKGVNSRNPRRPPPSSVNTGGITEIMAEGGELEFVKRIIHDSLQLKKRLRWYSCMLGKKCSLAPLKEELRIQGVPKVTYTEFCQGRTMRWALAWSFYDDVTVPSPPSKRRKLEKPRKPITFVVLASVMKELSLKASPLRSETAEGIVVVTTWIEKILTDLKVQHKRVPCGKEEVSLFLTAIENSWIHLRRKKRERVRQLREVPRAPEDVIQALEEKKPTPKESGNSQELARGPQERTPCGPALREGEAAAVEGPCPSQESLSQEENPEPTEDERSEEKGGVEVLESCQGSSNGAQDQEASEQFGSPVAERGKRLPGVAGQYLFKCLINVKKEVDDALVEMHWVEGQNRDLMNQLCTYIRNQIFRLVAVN
UniProt O43513: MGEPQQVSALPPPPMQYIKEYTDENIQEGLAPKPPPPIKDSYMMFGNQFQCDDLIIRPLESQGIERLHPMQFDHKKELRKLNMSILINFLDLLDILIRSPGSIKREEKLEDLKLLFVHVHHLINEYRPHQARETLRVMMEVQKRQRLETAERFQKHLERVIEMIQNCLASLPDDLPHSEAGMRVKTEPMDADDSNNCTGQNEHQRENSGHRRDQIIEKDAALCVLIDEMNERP
UniProt Q9UHV7: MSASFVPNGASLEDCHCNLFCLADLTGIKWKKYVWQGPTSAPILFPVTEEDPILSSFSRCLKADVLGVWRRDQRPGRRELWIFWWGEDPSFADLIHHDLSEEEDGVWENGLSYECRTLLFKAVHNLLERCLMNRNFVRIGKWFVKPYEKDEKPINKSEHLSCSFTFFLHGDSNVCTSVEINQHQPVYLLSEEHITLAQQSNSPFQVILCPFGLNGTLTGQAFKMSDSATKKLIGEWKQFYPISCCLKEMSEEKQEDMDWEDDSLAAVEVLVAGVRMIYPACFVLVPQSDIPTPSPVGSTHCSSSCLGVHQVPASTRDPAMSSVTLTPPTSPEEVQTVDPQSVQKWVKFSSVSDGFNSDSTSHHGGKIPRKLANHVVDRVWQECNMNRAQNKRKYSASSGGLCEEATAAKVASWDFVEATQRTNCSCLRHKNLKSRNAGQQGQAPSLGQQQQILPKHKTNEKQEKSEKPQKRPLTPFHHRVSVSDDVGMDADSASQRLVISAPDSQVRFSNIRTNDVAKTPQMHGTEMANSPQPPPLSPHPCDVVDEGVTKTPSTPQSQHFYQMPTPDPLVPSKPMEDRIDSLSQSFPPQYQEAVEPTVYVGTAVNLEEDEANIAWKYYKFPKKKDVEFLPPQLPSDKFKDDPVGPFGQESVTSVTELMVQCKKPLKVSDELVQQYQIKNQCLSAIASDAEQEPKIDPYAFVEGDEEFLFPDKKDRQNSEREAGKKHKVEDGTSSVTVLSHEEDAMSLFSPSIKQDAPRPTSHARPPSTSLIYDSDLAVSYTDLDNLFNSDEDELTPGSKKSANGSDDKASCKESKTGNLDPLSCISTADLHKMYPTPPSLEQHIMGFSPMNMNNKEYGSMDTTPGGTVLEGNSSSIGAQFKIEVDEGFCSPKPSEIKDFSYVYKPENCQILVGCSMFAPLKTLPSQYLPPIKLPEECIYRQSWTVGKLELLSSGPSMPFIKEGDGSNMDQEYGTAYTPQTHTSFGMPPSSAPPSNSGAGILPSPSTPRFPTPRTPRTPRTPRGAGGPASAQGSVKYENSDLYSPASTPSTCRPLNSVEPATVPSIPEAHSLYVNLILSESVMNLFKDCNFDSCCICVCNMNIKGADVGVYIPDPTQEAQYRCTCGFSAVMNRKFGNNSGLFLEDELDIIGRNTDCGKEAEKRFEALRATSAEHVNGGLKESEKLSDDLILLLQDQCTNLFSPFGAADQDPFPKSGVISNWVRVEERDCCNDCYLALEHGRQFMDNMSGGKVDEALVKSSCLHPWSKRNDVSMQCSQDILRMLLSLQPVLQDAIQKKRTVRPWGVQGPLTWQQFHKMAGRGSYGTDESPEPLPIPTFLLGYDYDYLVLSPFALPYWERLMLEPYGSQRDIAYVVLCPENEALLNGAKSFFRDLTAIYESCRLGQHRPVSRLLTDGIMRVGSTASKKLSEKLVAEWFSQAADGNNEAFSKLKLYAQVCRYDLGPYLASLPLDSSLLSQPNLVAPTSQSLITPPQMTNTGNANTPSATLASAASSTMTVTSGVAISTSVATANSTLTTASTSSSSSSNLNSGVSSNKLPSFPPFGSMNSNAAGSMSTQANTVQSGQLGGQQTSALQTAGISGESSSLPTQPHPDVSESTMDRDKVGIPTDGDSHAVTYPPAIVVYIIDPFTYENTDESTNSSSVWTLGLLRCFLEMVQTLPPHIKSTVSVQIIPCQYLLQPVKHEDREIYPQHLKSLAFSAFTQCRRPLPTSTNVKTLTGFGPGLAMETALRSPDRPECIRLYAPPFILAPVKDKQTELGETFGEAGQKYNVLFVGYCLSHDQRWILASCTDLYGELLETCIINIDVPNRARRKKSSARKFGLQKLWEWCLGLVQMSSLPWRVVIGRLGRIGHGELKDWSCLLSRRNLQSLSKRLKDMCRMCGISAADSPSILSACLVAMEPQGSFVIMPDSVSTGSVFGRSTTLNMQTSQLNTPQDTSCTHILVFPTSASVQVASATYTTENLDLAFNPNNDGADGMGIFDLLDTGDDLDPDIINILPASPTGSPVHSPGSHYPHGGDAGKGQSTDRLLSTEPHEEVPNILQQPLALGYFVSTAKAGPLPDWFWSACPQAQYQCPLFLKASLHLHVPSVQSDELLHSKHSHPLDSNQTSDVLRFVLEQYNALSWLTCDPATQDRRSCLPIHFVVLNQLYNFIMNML
UniProt O14770: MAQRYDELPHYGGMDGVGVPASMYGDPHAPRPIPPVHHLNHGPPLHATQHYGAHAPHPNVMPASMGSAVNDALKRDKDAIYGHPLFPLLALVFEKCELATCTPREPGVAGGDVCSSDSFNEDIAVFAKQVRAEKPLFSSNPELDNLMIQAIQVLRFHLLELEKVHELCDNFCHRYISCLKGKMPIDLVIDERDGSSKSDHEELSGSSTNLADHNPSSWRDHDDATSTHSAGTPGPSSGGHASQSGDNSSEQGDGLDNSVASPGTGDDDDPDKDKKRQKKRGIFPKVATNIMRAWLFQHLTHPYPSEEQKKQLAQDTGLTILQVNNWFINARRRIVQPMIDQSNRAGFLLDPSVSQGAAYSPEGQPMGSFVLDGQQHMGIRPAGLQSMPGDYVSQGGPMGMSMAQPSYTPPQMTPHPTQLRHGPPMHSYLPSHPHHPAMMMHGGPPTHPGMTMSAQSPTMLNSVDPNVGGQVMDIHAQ
UniProt Q6ZNC8: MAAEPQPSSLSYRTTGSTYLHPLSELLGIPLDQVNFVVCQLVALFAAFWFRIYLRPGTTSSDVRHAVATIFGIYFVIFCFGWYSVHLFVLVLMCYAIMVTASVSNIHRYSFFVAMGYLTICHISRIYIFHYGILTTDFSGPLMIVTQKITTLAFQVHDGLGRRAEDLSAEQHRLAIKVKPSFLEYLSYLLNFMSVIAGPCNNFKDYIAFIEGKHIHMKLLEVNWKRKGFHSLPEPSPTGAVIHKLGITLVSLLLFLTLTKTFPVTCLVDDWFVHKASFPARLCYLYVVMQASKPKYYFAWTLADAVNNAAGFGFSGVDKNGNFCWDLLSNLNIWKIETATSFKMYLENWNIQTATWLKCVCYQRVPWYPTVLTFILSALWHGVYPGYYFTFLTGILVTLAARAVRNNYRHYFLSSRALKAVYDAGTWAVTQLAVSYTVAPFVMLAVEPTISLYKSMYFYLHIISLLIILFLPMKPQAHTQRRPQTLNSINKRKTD

Assays:
Test in all cases: log2 fold change, soluble protein after heating vs DMSO (PISA); higher = thermal stabilisation; K562 cells, 10 uM, 30 min; active = over 0.2 and 3.5 SD of the protein, either way, in both replicates (recomputed)
[1] = compound: Cc1ccc(NC(=O)c2ccc(CN3CC[C@H](N(C)C)C3)c(C(F)(F)F)c2)cc1Nc1nccc(-c2cncnc2)n1 [bafetinib]
Outline: (§1)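 Quantification of soluble protein used TMTpro 16plex LC-MS/MS, with channel sums equalised. Samples were the supernatant after 21,000xg for 90 min of pooled aliquots from K562 cells (2×10^6 cells/mL) treated with 10 μM compound for 30 min, heated for 3 min over 48°C-58°C, and extracted in PBS with 0.5% NP-40 at 4°C. Values, from duplicates, describe thermal stability against control samples on a log2 fold-change scale.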

[2] = compound: Cc1cccc(CC(=O)N2CCc3c2ccc(-c2cn(C)c4ncnc(N)c24)c3F)n1
Outline: as §1

[3] = compound: Cc1cn(-c2cc(NC(=O)c3ccc(C)c(Nc4nccc(-c5cccnc5)n4)c3)cc(C(F)(F)F)c2)cn1 [nilotinib]
Outline: as §1

[4] = compound: Cc1nc(Nc2n[nH]c3c2CN(C(=O)N[C@H](CN(C)C)c2ccccc2)C3(C)C)c2sccc2n1
Outline: as §1

[5] = compound: Cc1nc(Nc2ncc(C(=O)Nc3c(C)cccc3Cl)s2)cc(N2CCN(CCO)CC2)n1 [dasatinib]
Outline: as §1

[6] = compound: Cc1ncc(-c2ccnc(Nc3ccc(S(C)(=O)=O)cc3)n2)n1C(C)C
Outline: as §1

[7] = compound: Cn1cc(-c2ccc3c(c2)CCN3C(=O)Cc2cccc(C(F)(F)F)c2)c2c(N)ncnc21
Outline: as §1

[8] = compound: Cn1cncc1[C@@](N)(c1ccc(Cl)cc1)c1ccc2c(c1)c(-c1cccc(Cl)c1)cc(=O)n2C [tipifarnib]
Outline: as §1

[9] = compound: Cn1cc(-c2ccc3nnc(C(F)(F)c4ccc5ncccc5c4)n3n2)cn1
Outline: as §1

[10] = compound: FC(F)(F)c1ccc(/C=C/c2nc(COc3ccc(CCCCn4ccnn4)cc3)co2)cc1 [mubritinib]
Outline: as §1

| Target | log2 fold change [1] | log2 fold change [2] | log2 fold change [3] | log2 fold change [4] | log2 fold change [5] | log2 fold change [6] | log2 fold change [7] | log2 fold change [8] | log2 fold change [9] | log2 fold change [10] |
| --- | --- | --- | --- | --- | --- | --- | --- | --- | --- | --- |
| MELK (UniProt Q14680) | inactive: -0.06 | inactive: 0.086 | inactive: 0.033 | active: -1.04 | inactive: -0.149 | inactive: 0.14 | inactive: -0.092 | inactive: 0.097 |  |  |
| MFHAS1 (UniProt Q9Y4C4) | inactive: 0.155 | inactive: -0.09 |  |  | inactive: 0.012 |  | inactive: 0.191 |  | inactive: 0.041 | inactive: 0.074 |
| MEGF9 (UniProt Q9H1U4) | inactive: -0.136 | inactive: -0.101 |  |  |  |  | inactive: -0.345 |  |  |  |
| MDH1 isoform 3 (UniProt P40925) | inactive: 0.007 | inactive: -0.025 | inactive: -0.019 | inactive: 0.013 | inactive: 0.01 | inactive: 0.002 | inactive: 0.009 | inactive: -0.057 | inactive: 0.009 | inactive: 0.033 |
| MFSD8 (UniProt Q8NHS3) | inactive: -0.006 | inactive: -0.12 |  |  | inactive: 0.061 |  | inactive: -0.007 | inactive: -0.042 | inactive: 0.017 | inactive: -0.002 |
| MFSD11 (UniProt O43934) | inactive: -0.047 | inactive: -0.032 | inactive: -0.038 | inactive: 0.046 | inactive: -0.004 | inactive: -0.119 | inactive: 0.17 | inactive: -0.047 |  | inactive: 0.063 |
| MCM2 (UniProt P49736) | inactive: -0.02 | inactive: 0.021 | inactive: -0.057 | inactive: -0.013 | inactive: -0.06 | inactive: -0.041 | inactive: 0.037 | inactive: -0.026 | inactive: 0.054 | inactive: 0.049 |
| METTL16 (UniProt Q86W50) | inactive: -0.043 | inactive: -0.016 | inactive: -0.07 | inactive: -0.007 | inactive: -0.043 | inactive: -0.074 | inactive: -0.021 | inactive: 0.007 | inactive: -0.036 | inactive: -0.012 |
| MEMO1 (UniProt Q9Y316) | inactive: 0.018 | inactive: 0.042 | inactive: 0.019 | inactive: -0.03 | inactive: -0.151 | inactive: -0.076 | inactive: 0.096 | inactive: -0.073 | inactive: 0.026 | inactive: 0.129 |
| MBNL1 (UniProt Q9NR56) | inactive: -0.081 | inactive: -0.011 | inactive: -0.004 | inactive: -0.033 | inactive: 0.096 | inactive: 0.01 | inactive: -0.034 | inactive: 0.058 | inactive: 0.009 | inactive: -0.001 |
| MGRN1 isoform 2 (UniProt O60291) | inactive: -0.07 | inactive: -0.227 |  |  |  |  | inactive: -0.149 | inactive: 0.2 | inactive: 0.027 |  |
| MED7 (UniProt O43513) | inactive: 0.191 |  | inactive: -0.029 | inactive: -0.041 | inactive: -0.063 | inactive: 0.094 | inactive: -0.05 | inactive: 0.271 | inactive: 0.069 |  |
| MFSD6 (UniProt Q6ZSS7) | inactive: -0.074 | inactive: -0.067 | inactive: -0.004 | inactive: -0.049 | inactive: -0.052 | inactive: -0.074 | inactive: 0.052 |  |  | inactive: -0.165 |
| MED13 (UniProt Q9UHV7) | inactive: 0.008 | inactive: 0.331 | inactive: -0.229 | inactive: -0.001 | inactive: -0.109 | inactive: -0.42 | inactive: -0.215 | inactive: -0.062 | inactive: -0.032 | inactive: 0.045 |
| MBOAT2 (UniProt Q6ZWT7) | inactive: -0.059 | inactive: 0.005 | inactive: -0.037 | inactive: 0.003 | inactive: 0.032 | inactive: 0.046 | inactive: -0.005 | inactive: 0 | inactive: 0.035 | inactive: 0.019 |
| MED19 (UniProt A0JLT2) | inactive: 0.061 | inactive: -0.041 | inactive: 0.017 | inactive: 0.071 |  | inactive: -0.142 |  |  | inactive: -0.112 | inactive: -0.232 |

Some values from the list:
MFSD8 (UniProt Q8NHS3) | log2 fold change [9]: inactive: 0.017
MCM2 (UniProt P49736) | log2 fold change [7]: inactive: 0.037
MFSD11 (UniProt O43934) | log2 fold change [2]: inactive: -0.032

An excerpt from above, reduced to log2 fold change [3]:

| Target | log2 fold change [3] |
| --- | --- |
| MELK (UniProt Q14680) | inactive: 0.033 |
| METTL16 (UniProt Q86W50) | inactive: -0.07 |

The list goes on.

| Target | log2 fold change [1] | log2 fold change [2] | log2 fold change [3] | log2 fold change [4] | log2 fold change [5] | log2 fold change [6] | log2 fold change [7] | log2 fold change [8] | log2 fold change [9] | log2 fold change [10] |
| --- | --- | --- | --- | --- | --- | --- | --- | --- | --- | --- |
| MED12 isoform 2 (UniProt Q93074) | inactive: -0.112 | inactive: 0.044 | inactive: -0.038 | inactive: 0.068 | inactive: -0.24 | inactive: -0.058 |  | inactive: -0.071 | inactive: 0.003 | inactive: -0.103 |
| MCOLN3 (UniProt Q8TDD5) | inactive: -0.03 | inactive: -0.183 | inactive: -0.289 | inactive: -0.113 |  | inactive: 0.041 |  | inactive: 0.072 | inactive: 0.079 | inactive: 0.05 |
| MEIS2 (UniProt O14770) | inactive: 0.007 | inactive: -0.004 |  |  | inactive: -0.229 |  | inactive: 0.006 | inactive: -0.094 | inactive: -0.059 |  |
| MDK (UniProt P21741) | inactive: 0.232 | inactive: -0.062 | inactive: 0.175 | inactive: -0.012 | inactive: 0.252 | inactive: 0.112 | inactive: -0.133 | inactive: 0.015 |  | inactive: -0.049 |
| MED27 (UniProt Q6P2C8) | inactive: 0.04 | inactive: -0.048 | inactive: 0.046 | inactive: -0.015 | inactive: -0.127 | inactive: 0.109 | inactive: -0.075 |  |  | inactive: -0.07 |
| METTL21A (UniProt Q8WXB1) | inactive: -0.049 | inactive: 0.022 | inactive: 0.002 | inactive: -0.026 | inactive: 0.005 | inactive: -0.032 | inactive: 0.099 | inactive: -0.131 | inactive: -0.013 | inactive: 0.051 |
| METTL6 (UniProt Q8TCB7) | inactive: 0.057 | inactive: 0.041 |  |  | inactive: 0.052 |  | inactive: 0.011 | inactive: 0.114 |  | inactive: 0.031 |
| MFSD1 isoform 6 (UniProt Q9H3U5) | inactive: -0.123 | inactive: 0.066 | inactive: -0.017 | inactive: 0.046 |  | inactive: -0.016 | inactive: -0.034 | inactive: 0.05 | inactive: 0.033 | inactive: 0.005 |
| MGAT4B isoform 3 (UniProt Q9UQ53) | inactive: -0.011 | inactive: -0.228 | inactive: -0.11 | inactive: 0.009 | inactive: 0.004 | inactive: -0.097 | inactive: -0.079 | inactive: 0.163 | inactive: -0.025 | inactive: -0.178 |
| MED6 (UniProt O75586) | inactive: 0.129 | inactive: 0.123 | inactive: -0.185 | inactive: 0.138 |  | inactive: 0.108 | inactive: -0.024 |  |  | inactive: -0.08 |
| MCM6 (UniProt Q14566) | inactive: -0.048 | inactive: 0.022 | inactive: -0.053 | inactive: -0.015 | inactive: -0.063 | inactive: -0.052 | inactive: 0.045 | inactive: -0.031 | inactive: 0.07 | inactive: 0.056 |
| MBOAT1 (UniProt Q6ZNC8) | inactive: -0.104 |  | inactive: 0.064 | inactive: -0.044 | inactive: -0.101 | inactive: -0.165 | inactive: 0.022 | inactive: -0.026 | inactive: -0.047 |  |
| MATR3 (UniProt P43243) | inactive: -0.086 | inactive: -0.101 | inactive: 0.077 | inactive: -0.244 | inactive: 0.071 | inactive: -0.285 |  |  | inactive: 0.136 | inactive: -0.075 |
| MBTPS2 (UniProt O43462) |  | inactive: -0.084 | inactive: 0.05 | inactive: 0.086 | inactive: -0.1 | inactive: -0.103 | inactive: 0.032 | inactive: -0.085 | inactive: 0.144 |  |
| MAST2 (UniProt Q6P0Q8) |  |  |  |  |  |  |  |  | inactive: -0.073 |  |
| MEX3C (UniProt Q5U5Q3) |  |  |  |  |  |  |  |  | inactive: -0.067 | inactive: 0.278 |
